Source: article PMC10726571
These are yes or no findings as the source states them, for the method shown. Binding seen in cells or lysates may run through a third protein. Some entries that bind do so weakly or less than the wild type.

Amino acid sequences for entries named in this document (tags omitted).
UniProt P01106: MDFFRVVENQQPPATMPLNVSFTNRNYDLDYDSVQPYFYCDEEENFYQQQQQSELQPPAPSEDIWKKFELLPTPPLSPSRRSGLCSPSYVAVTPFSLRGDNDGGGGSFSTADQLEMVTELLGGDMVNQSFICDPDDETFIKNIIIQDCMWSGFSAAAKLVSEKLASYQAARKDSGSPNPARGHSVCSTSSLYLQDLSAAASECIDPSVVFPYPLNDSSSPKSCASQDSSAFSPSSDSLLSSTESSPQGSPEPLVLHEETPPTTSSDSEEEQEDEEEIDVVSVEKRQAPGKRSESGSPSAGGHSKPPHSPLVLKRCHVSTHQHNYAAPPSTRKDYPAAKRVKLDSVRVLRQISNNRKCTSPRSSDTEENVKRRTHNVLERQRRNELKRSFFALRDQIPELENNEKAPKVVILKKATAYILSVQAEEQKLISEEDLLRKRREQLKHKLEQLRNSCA
UniProt Q13191: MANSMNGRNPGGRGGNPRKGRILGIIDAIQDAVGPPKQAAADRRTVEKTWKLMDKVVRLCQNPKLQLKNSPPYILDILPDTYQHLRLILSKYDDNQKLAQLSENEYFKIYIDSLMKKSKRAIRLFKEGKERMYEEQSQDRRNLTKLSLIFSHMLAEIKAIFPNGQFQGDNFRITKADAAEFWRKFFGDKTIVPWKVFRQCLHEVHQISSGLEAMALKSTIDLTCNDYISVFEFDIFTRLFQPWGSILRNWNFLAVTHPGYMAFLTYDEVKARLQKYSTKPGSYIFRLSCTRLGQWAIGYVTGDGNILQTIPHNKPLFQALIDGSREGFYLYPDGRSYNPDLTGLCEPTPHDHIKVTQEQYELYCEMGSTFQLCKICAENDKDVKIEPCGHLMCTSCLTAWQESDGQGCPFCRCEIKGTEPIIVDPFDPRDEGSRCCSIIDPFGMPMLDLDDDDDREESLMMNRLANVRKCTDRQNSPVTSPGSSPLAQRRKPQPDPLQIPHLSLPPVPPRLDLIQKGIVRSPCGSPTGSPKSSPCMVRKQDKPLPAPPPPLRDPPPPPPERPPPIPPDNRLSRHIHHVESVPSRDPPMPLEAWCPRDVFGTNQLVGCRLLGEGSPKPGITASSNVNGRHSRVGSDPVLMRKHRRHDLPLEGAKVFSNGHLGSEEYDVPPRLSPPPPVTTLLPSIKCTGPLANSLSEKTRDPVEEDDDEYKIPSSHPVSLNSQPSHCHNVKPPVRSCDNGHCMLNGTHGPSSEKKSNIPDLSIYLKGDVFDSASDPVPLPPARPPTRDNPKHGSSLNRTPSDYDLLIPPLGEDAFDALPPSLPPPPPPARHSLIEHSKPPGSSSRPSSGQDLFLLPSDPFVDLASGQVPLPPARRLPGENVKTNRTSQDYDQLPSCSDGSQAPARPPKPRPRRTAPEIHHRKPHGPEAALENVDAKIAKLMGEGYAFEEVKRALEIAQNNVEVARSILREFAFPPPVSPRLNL

Target: endogenous cMYC (human (endogenous in colon cancer cells, SW480 and LoVo)) (UniProt P01106)
Assay: co-IP; endogenous proteins of colon cancer cells; lysis in RIPA buffer at 4 °C; anti-cMYC (6 μg, proteintech) and Protein A/G PLUS agarose; Western blot

binding: binds
Substance: endogenous CBLB (from UniProt Q13191 1-982)
